Data published in PubChem BioAssay AID276 (DTP/NCI, 2004).
The list does not hold the whole screen: it gathers tests that were run many times, whatever their T/C, doses with no T/C, and many T/C values between a quarter and a half above the control. Further doses and runs are listed elsewhere. T/C gives the treated animals as a percentage of the vehicle group. Some entries give survivors of the animals treated and no T/C: the source holds a T/C of zero for them, seemingly a mark for toxic or unscored doses. Some doses without a T/C left all or most animals alive at the check, yet need not have been tolerated: the source hardly ever lists a survival T/C far under the control, and the zero likely stands for such cases as well. Counts of survivors are from the toxicity check (mostly the fifth day) where no day follows; animals may have died later. Schedules are NCI's codes, read here as Q, the interval in days (D) or hours (H), X, the number of doses. Some entries were tested several times; the values are given in rising order. Where survival is the endpoint, this PubChem deposit counts one and a half times the control or more as active, and values a quarter to a half above the control carry no call in these data; other NCI protocols may use other cut-offs. Signs of the kind (2×) count equal records among those shown. Some T/C values carry the count of animals alive at the toxicity check (mostly the fifth day); without a count, all were alive then.

System: B6C3F1 mice, Lewis lung carcinoma iv, survival T/C
Test: NCI In Vivo Anticancer Drug Screen. Data for tumor model Lewis Lung Carcinoma (intravenous) in B6C3F1 mice
Details: T/C endpoint: median survival time, higher T/C = longer survival
Outline: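 T/C ratio derived from survival of compound-treated versus vehicle-treated mice bearing transplantable tumors.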

[1] = dose: 200.0 mg/kg/injection, schedule: Q01DX009 (ip), vehicle: saline with Tween-80
[2] = dose: 100.0 mg/kg/injection, schedule: Q01DX009 (ip), vehicle: Klucel (hydroxypropylcellulose) (HPC)
[3] = dose: 200.0 mg/kg/injection, schedule: Q01DX009 (ip), vehicle: Klucel (hydroxypropylcellulose) (HPC)
[4] = dose: 1.0 mg/kg/injection, schedule: Q01DX009 (ip), vehicle: saline
[5] = dose: 4.0 mg/kg/injection, schedule: Q01DX009 (ip), vehicle: saline
[6] = dose: 8.0 mg/kg/injection, schedule: Q01DX009 (ip), vehicle: saline
[7] = dose: 2.0 mg/kg/injection, schedule: Q01DX009 (ip), vehicle: saline
[8] = dose: 25.0 mg/kg/injection, schedule: Q01DX009 (ip), vehicle: Klucel (hydroxypropylcellulose) (HPC)
[9] = dose: 50.0 mg/kg/injection, schedule: Q01DX009 (ip), vehicle: Klucel (hydroxypropylcellulose) (HPC)
[10] = dose: 25.0 mg/kg/injection, schedule: Q01DX009 (ip), vehicle: saline with Tween-80
[11] = dose: 50.0 mg/kg/injection, schedule: Q01DX009 (ip), vehicle: saline with Tween-80
[12] = dose: 6.0 mg/kg/injection, schedule: Q01DX009 (ip), vehicle: Klucel (hydroxypropylcellulose) (HPC)
[13] = dose: 100.0 mg/kg/injection, schedule: Q01DX009 (ip), vehicle: saline with Tween-80
[14] = dose: 300.0 mg/kg/injection, schedule: Q04DX003 (ip), vehicle: saline
[15] = dose: 25.0 mg/kg/injection, schedule: Q01DX009 (ip), vehicle: water
[16] = dose: 50.0 mg/kg/injection, schedule: Q01DX009 (ip), vehicle: water
[17] = dose: 100.0 mg/kg/injection, schedule: Q01DX009 (ip), vehicle: water

With `COC1/C=C/C=C(/C)Cc2cc(O)c(Cl)c(c2)N(C)C(=O)CC(OC(=O)C(C)C)C2(C)OC2C(C)C2CC1(O)NC(=O)O2` (stereo unspecified) the survivor count (dose: 1.0 mg/kg/injection, schedule: Q01DX009 (ip), vehicle: saline + alcohol) was 9 of 10, the survivor count (dose: 2.0 mg/kg/injection, schedule: Q01DX009 (ip), vehicle: saline + alcohol) was 3 of 10 and the survivor count (dose: 4.0 mg/kg/injection, schedule: Q01DX009 (ip), vehicle: saline + alcohol) was 0 of 10.

For `CC1(C)CC2(C)OC2C2(C1)N=NC(=Nc1ccccc1)O2` (stereo unspecified), the survivor count [1] was 0 of 10 and the survivor count (dose: 400.0 mg/kg/injection, schedule: Q01DX009 (ip), vehicle: saline with Tween-80) was 0 of 8.

In the case of `CC(=O)OC1=NC(C)c2c1cc(OC(C)=O)[nH]c2=O` (stereo unspecified), the survivor count [2] is reported as 3 of 10 and the survivor count [3] is reported as 0 of 10.

With `C/C=C1\C[C@@H]2C(OC)Nc3cc(O)c(OC)cc3C(=O)N2C1` (stereo partly specified) the survivor count [4] was 10 of 10 and the survivor count (dose: 1.0 mg/kg/injection, schedule: Q01DX009 (ip), vehicle: suspension in saline) was 10 of 10.

With `Cc1c(N)nc([C@H](CC(N)=O)NC[C@H](N)C(N)=O)nc1C(=O)N[C@H](C(=O)N[C@H](C)[C@@H](O)[C@H](C)C(=O)N[C@H](C(=O)NCCc1nc(-c2nc(C(=O)NCCC[S+](C)C)cs2)cs1)[C@@H](C)O)C(OC1OC(CO)C(O)C(O)C1OC1OC(CO)C(O)C(OC(N)=O)C1O)c1cnc[nH]1` (stereo partly specified) the T/C [5] was 104, 119, 120, 142 % of control, the T/C [6] was 123, 124, 143 % of control (2×) and the T/C (dose: 16.0 mg/kg/injection, schedule: Q01DX009 (ip), vehicle: saline) was 143, 145, 150, 171 % of control. For the same compound, the survivor count (dose: 32.0 mg/kg/injection, schedule: Q01DX009 (ip), vehicle: saline) was 9 of 10 and 10 of 10 and the survivor count (dose: 64.0 mg/kg/injection, schedule: Q01DX009 (ip), vehicle: saline) was 10 of 10.

`O=C1C=C2C(=CCOC2O)O1` (stereo unspecified) was tested, and the survivor count (dose: 6.0 mg/kg/injection, schedule: Q01DX009 (ip), vehicle: saline) was 1 of 10, the survivor count (dose: 8.0 mg/kg/injection, schedule: Q01DX009 (ip), vehicle: Klucel (hydroxypropylcellulose) (HPC)) was 0 of 10 and the survivor count (dose: 12.0 mg/kg/injection, schedule: Q01DX009 (ip), vehicle: saline) was 0 of 10.

With `CNC(=O)O/N=C(\CN=[N+]=[N-])C(C)(C)C` the survivor count [7] was 0 of 10.

For `CCCCCC[Se][Se]CCCCCC`, the survivor count [8] was 3 of 10 and the survivor count [9] was 2 of 10.

For `CCOC(=O)Nc1cc2c(c(N)n1)N=C(c1ccc(Cl)cc1Cl)CN2`, the survivor count [10] was 9 of 10 and the survivor count [11] was 0 of 10.

For `COc1ccc(CC2C(=O)NC(C)C(=O)N(C)C3Cc4ccc(cc4)Oc4cc(ccc4O)CC(C(=O)NC(C)C(=O)NC(C)C(=O)N2C)N(C)C3=O)cc1` (stereo unspecified), the survivor count (dose: 4.0 mg/kg/injection, schedule: Q01DX009 (ip), vehicle: saline with Tween-80) was 10 of 10.

`C[C@H](N)C(=O)N[C@@H]1[C@H]2C(=C(O)C[C@@H](O)[C@@H]2O)C(=O)O[C@]1(C)C(Cl)Cl` was tested, and the survivor count (dose: 3.0 mg/kg/injection, schedule: Q01DX009 (ip), vehicle: Klucel (hydroxypropylcellulose) (HPC)) was 10 of 10 and the survivor count [12] was 1 of 10.

For `O=[N+]([O-])c1ccc(Sc2ccncn2)c([N+](=O)[O-])c1`, the survivor count [1] was 1 of 10.

With `O=NN(CCF)C(=O)NC1CCCCC1` the T/C [12] was 128 % of control, the T/C (dose: 6.25 mg/kg/injection, schedule: Q01DX009 (ip), vehicle: Klucel (hydroxypropylcellulose) (HPC)) was 126 % of control [8 of 9 alive] and the T/C [8] was 141 % of control. The survivor count (dose: 40.0 mg/kg/injection, schedule: Q01DX009 (ip), vehicle: saline with Tween-80) was 1 of 10 on day 9, the survivor count [9] was 3 of 10 and 7 of 10 and the survivor count [2] was 0 of 10. The survivor count [3] was 0 of 10.

In the case of `COc1cc2c3c(cccc3c1)C(=O)N(CCN(C)C)C2=O`, the survivor count (dose: 160.0 mg/kg/injection, schedule: Q01DX009 (ip), vehicle: saline with Tween-80) is reported as 5 of 10.

For `O=S1(=O)C=C(c2ccccc2)C(c2ccccc2)=C1`, the survivor count [11] was 7 of 10 and the survivor count [13] was 1 of 10.

For `OC1(CSc2ccccc2)CCCCC1`, the T/C [10] was 130 % of control.

With `O=c1[nH]c(=O)n(C2CC(O)C(CO)O2)cc1F` (stereo unspecified) the T/C (dose: 147.0 mg/kg/injection, schedule: Q04DX003 (ip), vehicle: saline) was 131 % of control, the T/C (dose: 210.0 mg/kg/injection, schedule: Q04DX003 (ip), vehicle: saline) was 144 % of control and the T/C [14] was 141 % of control. The survivor count [14] was 8 of 9 and the survivor count (dose: 429.0 mg/kg/injection, schedule: Q04DX003 (ip), vehicle: saline) was 10 of 10 and 9 of 9.

With `C1CC[N-]CC1.[Cl][Pt+2][Cl].[NH-]C1CC1` the survivor count (dose: 3.12 mg/kg/injection, schedule: Q01DX009 (ip), vehicle: water) was 10 of 10, the survivor count [15] was 10 of 10 and the survivor count [16] was 7 of 10. For the same compound, the survivor count [17] was 0 of 10.

For `COc1cc2c(c(OC)c1OC)-c1ccc(OC)c(=O)cc1[C@@H](NC(=O)CCl)CC2`, the T/C (dose: 0.5 mg/kg/injection, schedule: Q01DX009 (ip), vehicle: saline with Tween-80) was 129 % of control and the survivor count (dose: 1.0 mg/kg/injection, schedule: Q01DX009 (ip), vehicle: saline with Tween-80) was 6 of 10.

In the case of `CC1OC(OC2CC(O)(C(=O)CO)Cc3c(O)c4c(c(O)c32)C(=O)c2ccccc2C4=O)CC(N)C1O` (stereo unspecified), the T/C (dose: 0.5 mg/kg/injection, schedule: Q01DX009 (ip), vehicle: other) is reported as 134 % of control, the survivor count (dose: 1.0 mg/kg/injection, schedule: Q01DX009 (ip), vehicle: other) is reported as 10 of 10 and the T/C [4] is reported as 131 % of control. For the same compound, the survivor count (dose: 2.0 mg/kg/injection, schedule: Q01DX009 (ip), vehicle: other) was 10 of 10, the survivor count [7] was 10 of 10 and the survivor count (dose: 2.0 mg/kg/injection, schedule: Q01DX009 (ip), vehicle: water) was 10 of 10.

For `OC(C1CO1)C(O)C1CO1` (stereo unspecified), the T/C [5] was 128 % of control and the survivor count [6] was 10 of 10.

With `CCCC(=O)OCC1OC(n2cnc3c(=S)nc[nH]c32)C(OC(=O)CCC)C1OC(=O)CCC` (stereo unspecified) the survivor count [13] was 10 of 10.

With `Cc1cc(Nc2ccc3c(c2)OCO3)c2cc3c(cc2n1)OCO3` the survivor count [2] was 10 of 10, the survivor count [3] was 1 of 10 and the survivor count (dose: 400.0 mg/kg/injection, schedule: Q01DX009 (ip), vehicle: Klucel (hydroxypropylcellulose) (HPC)) was 0 of 10.

`O=C(CCCN1CCC(C(O)c2ccc(F)cc2)CC1)c1ccc(F)cc1` (stereo unspecified) was tested, and the survivor count [10] was 10 of 10 and the survivor count [11] was 8 of 10.

For `C[n+]1c(-c2cccc3ccccc23)c2cc(N)ccc2c2ccccc21`, the survivor count (dose: 12.5 mg/kg/injection, schedule: Q01DX009 (ip), vehicle: saline) was 10 of 10, the survivor count (dose: 25.0 mg/kg/injection, schedule: Q01DX009 (ip), vehicle: saline) was 7 of 10 and the survivor count (dose: 50.0 mg/kg/injection, schedule: Q01DX009 (ip), vehicle: saline) was 2 of 10.

With `COc1cccc2c1C(=O)c1c(O)c3c(c(O)c1C2=O)C[C@@](O)(C(O)CO)C[C@@H]3OC1CC(N(Cc2ccccc2)Cc2ccccc2)C(O)C(C)O1` (stereo partly specified) the T/C [15] was 126 % of control, the T/C [16] was 147 % of control and the survivor count [17] was 10 of 10. The survivor count (dose: 200.0 mg/kg/injection, schedule: Q01DX009 (ip), vehicle: water) was 10 of 10 and the survivor count (dose: 400.0 mg/kg/injection, schedule: Q01DX009 (ip), vehicle: water) was 10 of 10.

For `CC(=O)OC1C(O)C(C)OC(OC2C(OC(=O)C3CCC4C(C3)OC3(CC(OC(=O)/C=C/c5ccccc5)C(C)CO3)C43CO3)OC(C)C(O)C2OC(C)=O)C1O` (stereo unspecified), the survivor count (dose: 32.0 mg/kg/injection, schedule: Q01DX009 (ip), vehicle: distilled water + Tween-80) was 9 of 10.
